Test results published in the supplement of paper PMC6078165.
Values are relative to the signal before dosing, not to a vehicle control; the signal also falls without drug.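 Fibroblast labels denote human fibroblasts, mainly primary ones from uterus (C12385, HUF), lung (H6013), bone (Hs27A), adrenal (HADF) and skin (WS1), plus mammary HMF and breast cancer-associated Hs343T. Cancer cells are basal-like or mesenchymal-like triple-negative breast cancer lines. A hit is a response shift exceeding 3x replicate standard deviation. The tissue of the other fibroblasts is not given here.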

Tested on: MDAMB231
Experiment: relative JC-1 red fluorescence (viability) vs pre-drug, coculture with fibroblast (fraction); higher = more viable cancer cells
Description: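 JC-1 labelled TNBC cells cocultured 1:1 (1,500 cells each) with CellTrace Violet stained primary or stromal fibroblasts in 384-well plates in FluoroBrite medium, treated with one of 42 anticancer drugs at 0.1, 1, 10 or 100 uM. JC-1 red fluorescence (mitochondrial integrity in cancer cells only) was read by plate reader every 8 h for 72 h. Values are normalised to each well's pre-drug value. The stock of one drug was tenfold lower, so its dose labels may be too high.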

CC(=O)O[C@H]1C(=O)[C@@]2(C)[C@H]([C@H](OC(=O)c3ccccc3)[C@]3(O)C[C@H](OC(=O)[C@H](O)[C@@H](NC(=O)c4ccccc4)c4ccccc4)C(C)=C1C3(C)C)[C@]1(OC(C)=O)CO[C@@H]1C[C@@H]2O [Paclitaxel]
relative JC-1 red fluorescence
Details	8 h	16 h	24 h	32 h	40 h	48 h	56 h	64 h	72 h
1 µM, coculture fibroblast: C12385	–	–	–	–	–	0.5235	0.491	0.514	0.515
1 µM, coculture fibroblast: H6013	–	–	–	–	–	0.691	0.671	0.657	0.631
1 µM, coculture fibroblast: H6019	–	–	–	–	–	0.58	0.56	0.578	0.569
1 µM, coculture fibroblast: H6076	–	–	–	–	–	0.6069	0.619	0.627	0.646
1 µM, coculture fibroblast: H6231	–	–	–	–	–	0.673	0.63	0.618	0.59
1 µM, coculture fibroblast: HADF	–	–	–	–	–	0.642	0.609	0.612	0.579
1 µM, coculture fibroblast: HCFa	–	–	–	–	–	0.609	0.571	0.542	0.502
1 µM, coculture fibroblast: HCPF	–	–	–	–	–	0.5389	0.515	0.498	0.492
1 µM, coculture fibroblast: HHSteC	–	–	–	–	0.696	0.675	0.631	0.617	0.582
1 µM, coculture fibroblast: HMF	–	–	–	–	0.606	0.572	0.543	0.521	0.503
1 µM, coculture fibroblast: HPFa	–	–	–	–	0.7025	0.676	0.627	0.601	0.547
1 µM, coculture fibroblast: HUF	–	–	–	–	0.56	0.55	0.513	0.512	0.492
1 µM, coculture fibroblast: Hs5	–	–	–	–	0.735	0.683	0.678	0.668	0.657
1 µM, coculture fibroblast: Hs27A	–	–	–	–	0.708	0.67	0.666	0.656	0.634
1 µM, coculture fibroblast: Hs343T	–	–	–	–	0.542	0.492	0.4485	0.441	0.428
1 µM, coculture fibroblast: WS1	–	–	–	–	0.53	0.51	0.485	0.493	0.487
10 µM, coculture fibroblast: C12385	0.817	0.7702	0.756	0.696	0.6406	0.6325	0.6013	0.6194	0.622
10 µM, coculture fibroblast: H6013	0.923	0.868	0.81	0.768	0.712	0.704	0.686	0.671	0.642
10 µM, coculture fibroblast: H6019	0.794	0.71	0.657	0.62	0.594	0.594	0.573	0.59	0.565
10 µM, coculture fibroblast: H6076	0.911	0.909	0.841	0.862	0.821	0.797	0.798	0.787	0.793
10 µM, coculture fibroblast: H6231	0.962	0.902	0.815	0.7531	0.685	0.644	0.589	0.571	0.535
10 µM, coculture fibroblast: HADF	0.92	0.879	0.8169	0.774	0.73	0.721	0.679	0.666	0.639
10 µM, coculture fibroblast: HCFa	0.919	0.861	0.811	0.758	0.689	0.649	0.608	0.58	0.546
10 µM, coculture fibroblast: HCPF	0.9178	0.8239	0.72	0.692	0.62	0.586	0.537	0.521	0.503
10 µM, coculture fibroblast: HHSteC	0.944	0.8891	0.835	0.7812	0.7295	0.7187	0.67468	0.6791	0.639
10 µM, coculture fibroblast: HMF	0.9807	0.8995	0.774	0.72	0.66	0.622	0.566	0.538	0.518
10 µM, coculture fibroblast: HPFa	0.9799	0.95587	0.8846	0.812	0.776	0.738	0.696	0.672	0.633
10 µM, coculture fibroblast: HUF	0.889	0.7842	0.796	0.6783	0.6154	0.601	0.571	0.578	0.582
10 µM, coculture fibroblast: Hs5	0.958	0.861	0.786	0.737	0.681	0.627	0.594	0.582	0.578
10 µM, coculture fibroblast: Hs27A	0.9184	0.888	0.85	0.817	0.771	0.738	0.74	0.733	0.701
10 µM, coculture fibroblast: Hs343T	0.922	0.826	0.718	0.6748	0.609	0.565	0.52	0.501	0.483
10 µM, coculture fibroblast: WS1	0.8057	0.7318	0.6615	0.603	0.557	0.535	0.493	0.492	0.479
